From PubChem BioAssay record AID1159506 (NCATS, 2015).

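Luminescence from an EWS-FLI1 target-promoter (NR0B1) reporter, set against a CMV-promoter reporter, two days after silencing single genes in TC32 Ewing sarcoma cells. Each siRNA was applied at 20 nM. A z-score of the log NR0B1-over-CMV signal, less the median of siRNAs with the same seed; more negative means a stronger specific loss of the NR0B1 reporter.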

The strongest results of the screen are mostly left out here. Sequences are the guide (antisense) strand, without overhang.

siRNA | target gene | seed-corrected z-score
GUUGGUAGAAAAGCAAUCG | SCP2 | -0.7021
AACUCGACACUCUUUAGGG | ACAD11 | 0.02941
UAGUUUACCAGCUCCGACU | TTC9B | 0.3744
AAACUGGAGGUGUAAGUUG | SLC43A1 | 0.3938
UGGCUUUGUAGUUAGGGUG | MT1CP | -0.972
AAUCAUCUGACUAAUGUUC | LIPF | -1.069
UAGGGUGCUUCUAUCAAUC | DCC | -0.5546
UCACGUACCCUUACCCUGC | UCN2 | -0.6611
UUGGAUAUCAUUGCUUGGA | PSORS1C1 | 0.5663
UAGCAUUUUACUUCAUUCA | TXLNGY | 0.114
AAAUCCUUAAGUUCUUUGG | NEURL2 | 0.1467
ACAGUAAGUAAUUCGUUCC | STXBP5L | -0.1395
UCUUGGAUAACCCAGCUCC | PPP1R1B | 1.147
UAUCUCAAUUCCAAAAUCC | CRBN | 0.7077
UUUCUCCUCACCCAAAGGC | MRPL35 | 1.391
ACCGUUAAUCUGGAUGAUG | PDZD4 | -0.1744
AUCGGUUCGGACUUGAUGC | MEF2A | 0.5698
UACUGUCCGAGUGGUCACC | ARVCF | -0.08261
UAGGAUAUCCGUAAAUGCG | CASR | 0.07138
UUCUUGAUGCUCUCGAUCU | KRT126P | -0.4287
UCCUCGACCAAAAACACCC | GIGYF2 | 0.1479
AUCGGAAGAACCAUAGCUG | SLC35B2 | 0.8721
UAAGAGACAGAGACCACAG | GPR75 | 0.491
UAUGGUUGUUCGGGCAUCC | LINC00174 | -0.1439
CCAGGCUUUUGUCCUAGGC | ENSA | 0.5671
UAACGUAAUCAUGCAGCCG | RAB26 | 0.2879
UGAAGUUCUAUAUUGGUUG | RBBP5 | 1.703
UCUGCACUAACGAAGAUGA | NXN | 0.07753
AAGGCUAUAAAGUCGCUUG | PRKDC | -1.82
UGAACUUAGAAGAUCAGUC | KIF11 | -1.486
AAUUGUUAAACAGUACGGG | HERC3 | 0.5911
ACUGGAUAAACUUUCCUAC | GPAM | 0.8455
UUAGUUCAAACUUCUCCUG | DCTN1 | -1.488
UUCGUUUUCCAGGAUGUGG | ADGRG4 | -0.09586
UCAGUUUCCAGGAUAACGG | SLC25A29 | -0.1381
AAACGAAUACCUGAUGUGC | HNRNPH2 | 0.1812
UUUCUUAUAAUGCUCAGCC | KRT6A | -0.09021
UUAGCAUCCGUCACUGUCA | OPLAH | -1.429
UCACUUUACUCUCCACGGC | VPS33B | 0.3835
AAUAAGUCAAACUUUGGUG | LARP4 | -0.9222
UUGAGGAUCAGCUCGCUGG | MYCN | -0.9038
UAAGUCGCAAGCAAACACU | B3GALT6 | 0.6386
UAAACUAUAGGGUCAAAAC | LPAR6 | -0.88
UCGAAGUCCACUCCAAUGG | RAB34 | -0.2606
AAAUCUUCCAGUGCGAUCU | UBALD2 | 0.9331
UUGGUCAUUAUAGAGAAUC | OTOL1 | -1.322
UCUACCUCCACGUUGUUUC | RWDD1 | 0.2329
UUGGUUAGUUCAGCUGUCU | GMFB | -0.0528
UGUCAUUUAGGCUUUUCAC | ATP5O | 0.714
UACCAGUAGGCCAUGAGCU | ADRA2C | -0.1019
UCUGGUACCAAGCUUCAUC | TBC1D31 | 0.6975
UCCAGUGAAAGAUUUGAGC | POMP | 1.003
UAGGGUUAUCCAACAAUCC | SPTLC1 | 0.5996
UUGUUAAAGGCCACGGCCC | DNPH1 | 0.9229
UCUUGUUGUAGCGUAGAGG | GPR183 | -0.05521
UCAAUAUCCAGAGUGUCUU | CLMP | 0.356
UGUUCCAAAAAUUCGAUCC | MSMO1 | -0.9021
UAUAGAUUGUCGUUGGAUG | ATP1A2 | 0.1123
UACCACUUAGGUAUGUUCC | DPY19L2P2 | -0.1264
AUUGAGGUCGGUGAACUCA | CYTH2 | -1.215
UUCCAGACAUGCGUGUUCC | NOS1 | -0.0615
UUCAUUGGUGAUAUGGUGG | HMCN2 | -1.488
UGCUUGAUCAGAGACUCUG | RPL10A | -0.305
AUACUAACAAGAAAUUUGG | OR6C74 | 0.1833
UGAAUGUCCAUUUGGAUCC | MLF1 | 0.06261
UAUCGCUCAGGGACAAAGC | FCHSD1 | 0.4766
UCACAGAUGAGCACGUUCC | PDGFRB | -0.4238
UGUCUGAACAGGCUAAGCG | OR51V1 | -0.587
AUACGGUUGGUGGUGAGCG | ATP2B3 | 1.327
UGAAGUUAAACGAUGUUGC | SUSD1 | 1.583
AAGCUUAACAUUCUCAGUU | CLEC17A | -0.00317
AUAGCAUCCGUCACAAUGC | PCSK1 | -0.2789
UAAUGUACGGCUCAUCAGG | CLDN16 | -1.463
AUCGGAAUCUGAGUGAAGC | DYNC1I2 | 0.1027
UAAGUAAUGAUGAGUCUUC | TAF11 | 0.07808
AUUUUAUUCAGGUCCAUCC | NLRP12 | 0.7334
ACUAUACUCAGAUAAGUCC | ITGA3 | 0.7018
UAAUACAUAACCCUGCUUG | BUB3 | 1.03

For reference, 7 entries once more:

- AUACGGUUGGUGGUGAGCG against ATP2B3 | seed-corrected z-score 1.327
- UAACGUAAUCAUGCAGCCG against RAB26 | seed-corrected z-score 0.2879
- UGAAUGUCCAUUUGGAUCC against MLF1 | seed-corrected z-score 0.06261
- UAGGGUGCUUCUAUCAAUC against DCC | seed-corrected z-score -0.5546
- AAACGAAUACCUGAUGUGC against HNRNPH2 | seed-corrected z-score 0.1812
- UUUCUCCUCACCCAAAGGC against MRPL35 | seed-corrected z-score 1.391
- AAUCAUCUGACUAAUGUUC against LIPF | seed-corrected z-score -1.069